Measured values published in publication PMC12548433.
Results are given in words; binding and its absence hold for the method and conditions named. In cells and extracts the contact can be indirect. Some binding calls cover weakened binding; strength is not graded here.

Protein sequences, listed by entry. Tags and fused reporters are not part of them. Residues count along the entry.
UniProt P0DTC6, residues 42-61: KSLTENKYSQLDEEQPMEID

Target: T1, ribonucleic acid export 1 (RAE1) (human (endogenous in 293T)) (UniProt P78406)
T1 sequence: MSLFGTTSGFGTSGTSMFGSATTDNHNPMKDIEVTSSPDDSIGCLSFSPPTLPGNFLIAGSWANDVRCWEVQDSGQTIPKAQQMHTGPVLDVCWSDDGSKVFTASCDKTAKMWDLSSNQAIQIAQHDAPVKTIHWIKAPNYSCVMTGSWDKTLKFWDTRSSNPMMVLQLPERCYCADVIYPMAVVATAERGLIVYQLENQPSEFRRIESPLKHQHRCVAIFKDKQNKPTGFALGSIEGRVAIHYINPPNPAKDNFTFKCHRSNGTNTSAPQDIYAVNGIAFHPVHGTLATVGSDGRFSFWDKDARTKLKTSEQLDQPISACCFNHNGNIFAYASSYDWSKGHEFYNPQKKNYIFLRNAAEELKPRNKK
Assay: co-IP

Q: Which binding does the source give for “GFP fused to the 20-mer NPC targeting peptide of SARS-CoV-2 ORF6 (ORF6^42-61) (from UniProt P0DTC6 42-61) (domain or fragment)” here?
A: binds
